A short description of the experiment: qHTS Assay for Lipid Storage Modulators in Drosophila S3 Cells.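 For cell number change: cells counted by Cell Tracker Red CMTPX staining in the red channel.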 The note with it: BODIPY lipid droplet fluorescence, 18-24 h; for cell number change: measured here: cell count max response, cells fed with added oleic acid. An outline of the steps:
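Drosophila S3 cells loaded with oleic acid (400 uM, as added) and compounds at several concentrations; lipid droplets imaged by 488-nm laser-scanning cytometry, 500–530 nm intensity and object ratio to cell channel. Percent activity normalized to 20 uM Triacsin C.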
For orientation: qHTS replaces the single test concentration by a dilution series.

Where [1] appears, read: measured here: cell number channel AC50, cells fed with added oleic acid.
Setting [2] is: measured here: lipid fluorescence (Fed channel) AC50, cells fed with added oleic acid.

The list shows a part of the results. These are further read-outs of the screen, such as a control signal, another cell line or another target. No call is given for them. Most of these compounds were active or inconclusive in the main read-out, so they are no random draw. The note in brackets gives the kind of curve behind each potency; many fits are weak.

Results on 16 compounds are retold here after PubChem BioAssay AID2685 (National Center for Advancing Translational Sciences (NCATS), 2010).

Usually AC50 stands for the concentration giving half of the maximal activity seen. For `O=C(CCn1c(=S)[nH]c2cc3c(cc2c1=O)OCO3)NCc1cccc(Cl)c1`, the cell number change was 123%. The AC50 under setting [1] was 29.1 µM [rising, single point]. Besides, the AC50 under setting [2] was 6.51 µM [falling, single point].

Turning to `COc1cc(/C=N/N=C(/N)c2nonc2N)cc(Br)c1OCc1cccc(C)c1`, the cell number change was -67.2%.

Take `CC(C(=O)OCC(=O)c1ccc(Br)cc1)N1C(=O)C2C3C=CC(C3)C2C1=O` (stereo not drawn): the cell number change was -26.2%. In addition, the AC50 under setting [2] was 29.1 µM [falling, single point].

As for `Fc1ccc(-c2nnc3n2CCCCC3)cc1`, the cell number change is 44.1%. In addition, the AC50 under setting [1] is 23.1 µM [rising, single point]. Under setting [2], the half-maximal activity concentration (AC50) was 29.1 µM [rising, single point].

With `COc1cc(NC(=S)NC(=O)c2ccc(F)cc2)ccc1NC(=O)c1ccco1`, the cell number change is -9.01%. The AC50 under setting [2] was 0.164 µM [rising, full curve, poor fit].

On to `CC(CN(C(N)=O)c1ccccc1O)C(=O)O` (stereo not drawn), for which the cell number change amounted to 15.6%. The AC50 under setting [2] is 29.1 µM [falling, single point].

For the compound `CC(C)NCC(O)c1ccc(O)c(O)c1` (stereo not drawn), the cell number change stood at 15.9%. Under setting [2], the AC50 was 29.1 µM [rising, single point].

For the compound `COc1ccc(N2CCC(CNS(=O)(=O)c3cccc(C(F)(F)F)c3)C2)cc1` (stereo not drawn), the AC50 under setting [1] was 6.51 µM [rising, single point].

As for `COc1ccc(-c2csc(N)n2)cc1F`, the cell number change worked out at 50.2%. Further, under setting [1], the AC50 is 29.1 µM [rising, single point].

Regarding `CC(C)C(C)NC(=O)COC(=O)C1CCN(S(=O)(=O)c2ccc3c(c2)OCCO3)CC1` (stereo not drawn), the cell number change was 9%.

Turning to `CCOC(=O)N1CCN(C(=O)CCS(=O)(=O)c2ccc3c(c2)CCN3C(=O)CC)CC1`, the cell number change was found to be 0.917%. The AC50 under setting [2] was 29.1 µM [rising, single point].

As for `CS(=O)(=O)N(CC(=O)NCCSCc1c(F)cccc1Cl)c1cccc([N+](=O)[O-])c1`, the cell number change is -46.7%. The AC50 under setting [1] is 32.6 µM [falling, single point]. In addition, the AC50 under setting [2] is 32.6 µM [falling, single point].

For `O=C(N/N=C/c1ccc(OC(F)F)cc1)c1cccc(S(=O)(=O)N2CCOCC2)c1`, the cell number change was -6.54%. Further, under setting [2], the AC50 is 0.00517 µM [falling, full curve, poor fit].

For the compound `CCc1nc(Sc2nnnn2-c2ccccc2)c2c3c(sc2n1)CCCC3`, the cell number change was -33.3%. Moreover, under setting [1], the AC50 is 0.00461 µM [falling, full curve, poor fit].

`Cc1c(Br)c(C(=O)NCc2cc3cc(Cl)ccc3[nH]2)nn1C`: the cell number change was 40.7%. For the same compound, under setting [1], the AC50 is 0.366 µM [rising, full curve]. For the same compound, the half-maximal activity concentration (AC50) under setting [2] is 1.46 µM [rising, partial curve].

With `CC(C)n1ncc2c(C(=O)NCc3ccccc3CN(C)C)cc(C3CC3)nc21`, the cell number change was -17.3%. In addition, under setting [2], the AC50 is 0.58 µM [rising, single point].
